Measurements reported in PubChem BioAssay AID493246 (Drosophila RNAi Screening Center, 2011)

- Test: 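Genome-wide search for dsRNAs that reduce cell number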 (primary screen)
- System: Drosophila Kc and S2R+ cells
- Reagent: long dsRNA against Drosophila genes
- Detection: 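Raw, unnormalised count of remaining cells in each well; per-plate z-scores of cell number underlie the calls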
- Scale: Kc cell number and S2R+ cell number: higher = more cells remaining
- Hit rule: 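Active when the per-plate z-score of cell number is 3 or more in the direction of fewer cells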
The screen tested about 21,000 reagents; below is a random part of those with a known target gene and a result. In the full data, 429 (2%) are marked active. 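Values are raw and not normalised between plates; calls rest on per-plate z-scores that were not deposited.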 Entries without a mark were called inactive. A plus sign joins genes that one reagent is predicted to hit. Not given: the amount of reagent, the time to read-out.

Kc cell number, rep 1	Kc cell number, rep 2	S2R+ cell number, rep 1	S2R+ cell number, rep 2	target gene	DRSC id
1.27e6 (active)	1.39e6	6.01e5	7.14e5	Sf3a1 (Splicing factor 3a subunit 1)	DRSC15166
1.46e6	1.92e6	1.13e6	1.15e6	Lkr (Leucokinin receptor)	DRSC09754
1.38e6	1.42e6	1.05e6	1.10e6	trp (transient receptor potential)	DRSC17088
1.32e6	1.34e6	1.20e6	1.14e6	CG9205	DRSC08642
1.29e6	1.33e6	1.09e6	1.27e6	m-cup (mann-cup)	DRSC14430
1.34e6	1.35e6	1.19e6	1.13e6	CG11594	DRSC08207
1.67e6	1.72e6	1.35e6	1.47e6	CG32137	DRSC10271
2.00e6	1.81e6	1.10e6	1.18e6	CG32137	DRSC10272
1.26e6	1.27e6	1.04e6	1.14e6	CG31200	DRSC15285
1.45e6	1.59e6	1.27e6	1.33e6	CG10991 (retired record)	DRSC12156
1.54e6	1.65e6	1.15e6	1.23e6	l(3)S110416 (retired record)	DRSC17094
1.69e6	1.81e6	1.18e6	1.30e6	CG18536	DRSC06763
1.61e6	1.63e6	1.45e6	1.45e6	DhpD (Dihydropterin deaminase)	DRSC12288
1.55e6	1.76e6	1.20e6	1.30e6	CG15186	DRSC12566
1.35e6	1.40e6	6.02e5	1.02e6	CG18585	DRSC02678
1.25e6	1.35e6	1.14e6	1.14e6	chk (chaski)	DRSC04994
1.48e6	1.53e6	1.24e6	1.32e6	CG7133	DRSC11798
1.36e6	1.46e6	1.36e6	1.40e6	Arpc2 (Actin-related protein 2/3 complex, subunit 2)	DRSC02113
4.97e5		8.37e5		Sry-beta (Serendipity beta)	DRSC16868
1.50e6	1.56e6	1.06e6	1.18e6	CG14262	DRSC14757
1.35e6	1.33e6	1.06e6	1.18e6	CG40045	DRSC21232
6.34e5 (active)	6.14e5	4.44e5	6.14e5	wrd (well-rounded)	DRSC16337
1.39e6	1.53e6	1.02e6	1.06e6	wrd (well-rounded)	DRSC16344
1.66e6	1.82e6	1.23e6	1.31e6	CG9933	DRSC03276
1.49e6	1.67e6	1.02e6	1.12e6	rod (rough deal)	DRSC17047
1.73e6	1.78e6	7.86e5	9.20e5	betaCOP (Coat Protein (coatomer) beta)	DRSC20312
1.52e6	1.63e6	1.34e6	1.45e6	PNKP (Polynucleotide kinase 3'-phosphatase)	DRSC16512
1.62e6	1.56e6	1.06e6	1.25e6	CG12116	DRSC17812
1.29e6	1.32e6	1.26e6	1.32e6	CG14645	DRSC12231
1.47e6	1.46e6	1.12e6	1.26e6	Girdin	DRSC08292
1.45e6	1.44e6	9.97e5	1.10e6	CG7567	DRSC16258
1.42e6	1.43e6	1.20e6	1.25e6	Vps45 (Vacuolar protein sorting 45)	DRSC16398
1.71e6	1.65e6	1.05e6	1.19e6	CG3625	DRSC00008
1.27e6	1.33e6	5.85e5	7.02e5	CG3625	DRSC00621
1.44e6	1.34e6	1.14e6	1.22e6	CG11529	DRSC09839
1.48e6	1.56e6	1.16e6	1.19e6	CG10953	DRSC06021
1.46e6	1.42e6	9.57e5	1.04e6	CG16989	DRSC18535
1.06e6	1.01e6	8.39e5	6.89e5	Cyp4p2 (Cytochrome P450 4p2)	DRSC07373
1.50e6	1.54e6	1.30e6	1.31e6	CG10898	DRSC14279
1.40e6	1.33e6	9.83e5	1.14e6	Hsp83 (Heat shock protein 83)	DRSC08664
1.57e6	1.61e6	1.21e6	1.15e6	HBS1	DRSC08544
1.19e6	1.33e6	9.33e5	1.05e6	CG6340	DRSC19987
1.37e6	1.45e6	1.12e6	1.10e6	CG3860	DRSC04425
1.37e6	1.51e6	1.19e6	1.22e6	Rab2	DRSC05017
1.36e6	1.45e6	1.10e6	1.16e6	CG8229	DRSC07114
1.59e6	1.62e6	1.24e6	1.27e6	unk (unkempt)	DRSC17093
1.59e6	1.72e6	1.20e6	1.33e6	CG9014	DRSC01979
9.14e5 (active)	9.92e5	7.22e5	8.83e5	RpS19a (Ribosomal protein S19a)	DRSC20281
1.35e6	1.48e6	1.05e6	1.10e6	Atg10 + CG18853 + CG12822	DRSC20757
1.60e6	1.71e6	1.31e6	4.68e5	CG9259	DRSC03174
5.43e5		7.43e5		Ant2 (Adenine nucleotide translocase 2)	DRSC19330
1.23e6	1.59e6	1.08e6	1.18e6	ast (asteroid)	DRSC00803
1.40e6	1.52e6	9.89e5	1.16e6	CG31913	DRSC00892
1.43e6	1.59e6	1.14e6	1.33e6	CG34304 (retired record)	DRSC12810
1.51e6	1.48e6	1.22e6	1.29e6	Rrp46	DRSC15537
1.47e6	1.42e6	1.02e6	1.15e6	CG14424	DRSC18472
1.46e6	1.57e6	1.22e6	1.31e6	sna (snail)	DRSC03613
1.58e6	1.61e6	1.10e6	1.19e6	CG10993	DRSC19362
1.53e6	1.56e6	1.13e6	1.27e6	MRP (Multidrug-Resistance like Protein 1)	DRSC02942

No new results follow: an excerpt of the list.
Kc cell number, rep 1	Kc cell number, rep 2	S2R+ cell number, rep 1	S2R+ cell number, rep 2	target gene	DRSC id
1.26e6	1.27e6	1.04e6	1.14e6	CG31200	DRSC15285
1.45e6	1.59e6	1.27e6	1.33e6	CG10991 (retired record)	DRSC12156
1.54e6	1.65e6	1.15e6	1.23e6	l(3)S110416 (retired record)	DRSC17094
1.69e6	1.81e6	1.18e6	1.30e6	CG18536	DRSC06763
1.61e6	1.63e6	1.45e6	1.45e6	DhpD (Dihydropterin deaminase)	DRSC12288
1.55e6	1.76e6	1.20e6	1.30e6	CG15186	DRSC12566
1.35e6	1.40e6	6.02e5	1.02e6	CG18585	DRSC02678
1.25e6	1.35e6	1.14e6	1.14e6	chk (chaski)	DRSC04994
